In the supplement of paper PMC11546906:
Structures can show the parent of a compound that is named as a salt. The list shows a part of the results. Repeats in this data set agree poorly, so a single value says little.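 A screen tested FDA-approved drugs combined with one-eighth-MIC colistin against a clinical mcr-1-positive, multidrug-resistant E. coli isolate, measuring OD600 at 24 h. Controls were untreated bacteria (growth) and broth alone (blank). An OD600 under 0.2 marked a combination as active.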

What follows are compounds tested on Escherichia coli 42 (mcr-1-positive clinical isolate) (assay: OD600 after 24 h growth with compound plus colistin (absorbance units (OD600)); higher = more bacterial growth (less inhibition)). Settings: first compound 25 µM; colistin concentration 0.5 ug/mL; incubation time 24 h; 37 °C.

OD600, inactive:
CC=CC1=C(C(=O)O)N2C(=O)[C@@H](NC(=O)[C@H](N)c3ccc(O)cc3)[C@H]2SC1 [Cefprozil monohydrate] + CCC(C)CCCC(=O)N[C@@H](CCN)C(=O)N[C@H](C(=O)N[C@@H](CCN)C(=O)N[C@H]1CCNC(=O)[C@H]([C@@H](C)O)NC(=O)[C@H](CCN)NC(=O)[C@H](CCN)NC(=O)[C@H](CC(C)C)NC(=O)[C@@H](CC(C)C)NC(=O)[C@H](CCN)NC1=O)[C@@H](C)O [colistin] 1.1
CCN(CC)C(=O)N1CCN(C)CC1 [Diethylcarbamazine citrate] + CCC(C)CCCC(=O)N[C@@H](CCN)C(=O)N[C@H](C(=O)N[C@@H](CCN)C(=O)N[C@H]1CCNC(=O)[C@H]([C@@H](C)O)NC(=O)[C@H](CCN)NC(=O)[C@H](CCN)NC(=O)[C@H](CC(C)C)NC(=O)[C@@H](CC(C)C)NC(=O)[C@H](CCN)NC1=O)[C@@H](C)O [colistin] 0.734
CC(=O)OCC[N+](C)(C)C [Acetylcholine chloride] + CCC(C)CCCC(=O)N[C@@H](CCN)C(=O)N[C@H](C(=O)N[C@@H](CCN)C(=O)N[C@H]1CCNC(=O)[C@H]([C@@H](C)O)NC(=O)[C@H](CCN)NC(=O)[C@H](CCN)NC(=O)[C@H](CC(C)C)NC(=O)[C@@H](CC(C)C)NC(=O)[C@H](CCN)NC1=O)[C@@H](C)O [colistin] 1.14
CNS(=O)(=O)Cc1ccc2[nH]cc(CCN(C)C)c2c1 [Sumatriptan succinate] + CCC(C)CCCC(=O)N[C@@H](CCN)C(=O)N[C@H](C(=O)N[C@@H](CCN)C(=O)N[C@H]1CCNC(=O)[C@H]([C@@H](C)O)NC(=O)[C@H](CCN)NC(=O)[C@H](CCN)NC(=O)[C@H](CC(C)C)NC(=O)[C@@H](CC(C)C)NC(=O)[C@H](CCN)NC1=O)[C@@H](C)O [colistin] 1.08
